Experimental data: PubChem BioAssay AID1159578 (Peter MacCallum Cancer Centre, 2015)
In all, the deposit lists about 18,000 reagents; this is a random part of them. About 1,030 of them (5.7%) were called active. 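Inactive calls also include pools with fewer than 3300 nuclei, whose migration was not assessed.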 Raw values vary from plate to plate and are shown uncorrected. Unmarked entries are inactive.

- Purpose: 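siRNA pools altering how lymphatic endothelial cells close a scratch wound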 (primary screen)
- Cells: human lymphatic endothelial cells
- Knock-down reagent: siRNA pool against human genes, 40 nM
- Duration: 48 h after transfection
- Read-out: 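High-content imaging of dye-stained cells in a scratch assay measures filled wound area and nuclei per well; duplicate means given as ratio to mock and robust z-score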
- Direction: migration robust z-score: higher = faster migration into the scratch; migration relative to mock: higher = more scratch area covered than mock; nuclei per well: higher = more cells in the well
- Call rule: 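Pools averaging fewer than 3300 nuclei are never called; remaining pools count as changed when migration robust z lies outside -2 to 2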
- Meaning of the calls: active = migration changed; inactive = no migration change, or too few cells

Gene | migration robust z-score | migration class with cell-count check | migration relative to mock | nuclei per well, duplicate mean
PATE1 (GeneID 160065) | 0.98 | migration z between -2 and 2; enough cells | 1.14 | 6140
GALR1 (GeneID 2587) | -1.01 | migration z between -2 and 2; enough cells | 0.61 | 5690
C8orf74 (GeneID 203076) | -1.14 | migration z between -2 and 2; enough cells | 0.58 | 3336
KRTAP12-4 (GeneID 386684) | -0.78 | migration z between -2 and 2; enough cells | 0.68 | 6470
PNCK (GeneID 139728) | -1.4 | migration z between -2 and 2; enough cells | 0.54 | 4027
RPLP0 (GeneID 6175) | -1.02 | migration z between -2 and 2; enough cells | 0.62 | 4327
ZFYVE28 (GeneID 57732) | -0.41 | migration z between -2 and 2; enough cells | 0.78 | 5924
CBX3 (GeneID 11335) | 0.41 | migration z between -2 and 2; enough cells | 0.99 | 4788
CRISP2 (GeneID 7180) | 0.16 | migration z between -2 and 2; enough cells | 0.93 | 5900
CES5A (GeneID 221223) | -0.8 | migration z between -2 and 2; enough cells | 0.65 | 5344
PTPRT (GeneID 11122) | 1.06 | migration z between -2 and 2; enough cells | 1.01 | 6398
KIF5B (GeneID 3799) | 0 | migration z between -2 and 2; enough cells | 0.8 | 5434
OR4N5 (GeneID 390437) | -0.14 | migration z between -2 and 2; enough cells | 0.85 | 6954
KCNT1 (GeneID 57582) | -1.09 | migration z between -2 and 2; enough cells | 0.6 | 4687
MMD (GeneID 23531) | 0.24 | migration z between -2 and 2; enough cells | 0.95 | 5774
GLB1L2 (GeneID 89944) | 0.32 | migration z between -2 and 2; enough cells | 0.97 | 4630
SPEF1 (GeneID 25876) | 1.73 | migration z between -2 and 2; enough cells | 1.34 | 6950
QKI (GeneID 9444) | -1.5 | migration z between -2 and 2; enough cells | 0.5 | 4852
DHH (GeneID 50846) | -0.6 | migration z between -2 and 2; enough cells | 0.69 | 5022
BLOC1S6 (GeneID 26258) | 1.27 | migration z between -2 and 2; enough cells | 1.21 | 4956
C6orf118 (GeneID 168090) | 2.18 (active) | migration z above 2; enough cells | 1.45 | 5410
CCDC88A (GeneID 55704) | 1 | migration z between -2 and 2; enough cells | 1.15 | 5228
IGSF22 (GeneID 283284) | -0.5 | migration z between -2 and 2; enough cells | 0.76 | 5734
ACMSD (GeneID 130013) | 1.14 | migration z between -2 and 2; enough cells | 1.02 | 6337
NMT2 (GeneID 9397) | -1.25 | migration z between -2 and 2; enough cells | 0.56 | 6628
PRDM8 (GeneID 56978) | -1.96 | migration z between -2 and 2; enough cells | 0.38 | 4682
PHF7 (GeneID 51533) | -0.08 | migration z between -2 and 2; enough cells | 0.79 | 5143
TMEM231 (GeneID 79583) | -0.2 | migration z between -2 and 2; enough cells | 0.83 | 5754
CTBS (GeneID 1486) | 0.08 | migration z between -2 and 2; enough cells | 0.82 | 5562
APOBEC3B (GeneID 9582) | -0.38 | migration z between -2 and 2; enough cells | 0.73 | 5697
UBASH3A (GeneID 53347) | 0.85 | migration z between -2 and 2; enough cells | 1.1 | 5783
RGS2 (GeneID 5997) | 0.62 | migration z between -2 and 2; enough cells | 1.04 | 6275
CD83 (GeneID 9308) | 0.18 | migration z between -2 and 2; enough cells | 0.94 | 6446
CXCL6 (GeneID 6372) | -1.82 | migration z between -2 and 2; enough cells | 0.41 | 4438
LCE1B (GeneID 353132) | -1.7 | migration z between -2 and 2; enough cells | 0.44 | 5924
SH2D3C (GeneID 10044) | -0.84 | migration z between -2 and 2; enough cells | 0.67 | 4808
HBG1 (GeneID 3047) | -0.91 | migration z between -2 and 2; enough cells | 0.63 | 5466
NFATC2 (GeneID 4773) | -1.04 | migration z between -2 and 2; enough cells | 0.6 | 5752
RGS21 (GeneID 431704) | 0.22 | migration z between -2 and 2; enough cells | 0.94 | 5848

6 entries from above, reduced to “migration robust z-score”:
CXCL6 (GeneID 6372): -1.82
LCE1B (GeneID 353132): -1.7
SH2D3C (GeneID 10044): -0.84
HBG1 (GeneID 3047): -0.91
NFATC2 (GeneID 4773): -1.04
RGS21 (GeneID 431704): 0.22
